Source: US20180215802A1 (MUSC FOUNDATION FOR RESEARCH DEVELOPMENT, published 2018)
No constants are given. Whether binding was seen depends on the method and setting. In cells and extracts the contact can be indirect. Some binding calls cover weakened binding; strength is not graded here.

Protein sequences, listed by entry. Tags and fused reporters are not part of them. Residues count along the entry.
UniProt Q15796, residues 2-467: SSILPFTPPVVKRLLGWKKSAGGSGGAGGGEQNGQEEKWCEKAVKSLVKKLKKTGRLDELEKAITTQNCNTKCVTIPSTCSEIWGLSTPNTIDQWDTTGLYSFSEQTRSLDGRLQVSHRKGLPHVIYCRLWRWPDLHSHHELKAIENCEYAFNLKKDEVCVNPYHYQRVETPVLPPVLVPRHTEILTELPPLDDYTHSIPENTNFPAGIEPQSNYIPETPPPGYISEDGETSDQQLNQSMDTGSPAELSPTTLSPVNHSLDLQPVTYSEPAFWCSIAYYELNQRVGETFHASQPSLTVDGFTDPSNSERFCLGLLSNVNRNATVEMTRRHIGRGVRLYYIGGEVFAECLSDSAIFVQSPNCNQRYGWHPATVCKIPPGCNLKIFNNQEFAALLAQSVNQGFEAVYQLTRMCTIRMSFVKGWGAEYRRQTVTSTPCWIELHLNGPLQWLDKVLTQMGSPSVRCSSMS

Experiments:
[1] = target: endogenous Smad2 in scleroderma lung and skin primary fibroblasts (human) (UniProt Q15796); assay: co-immunoprecipitation
[2] = target: endogenous Smad2 in scleroderma lung and skin primary fibroblasts (human) (UniProt Q15796); assay: co-immunoprecipitation from scleroderma lung and skin fibroblasts with C12 antibody, anti-Smad2 immunoblot
[3] = target: endogenous Smad2 in scleroderma lung and skin primary fibroblasts (human) (UniProt Q15796); assay: co-immunoprecipitation (FIG. 12C)

Measured: binding

B1: M10 peptide (TRPASFWETS), synthetic (peptide)
peptide: TRPASFWETS
notes: Synthetic peptide from GenScript; A 5,6-TAMRA conjugate (at the N-terminus) was used only for localisation; also called 2 kD C-terminal fragment (M10) of the MET receptor; last 10 amino acids of MET
binds: all assays above
